Measured values published in PMC11381337.

Protein sequences, listed by entry. Tags and fused reporters are not part of them. Lines headed by an entry give the natural chain unless they say otherwise; changes in a name come on top.
UniProt Q22618: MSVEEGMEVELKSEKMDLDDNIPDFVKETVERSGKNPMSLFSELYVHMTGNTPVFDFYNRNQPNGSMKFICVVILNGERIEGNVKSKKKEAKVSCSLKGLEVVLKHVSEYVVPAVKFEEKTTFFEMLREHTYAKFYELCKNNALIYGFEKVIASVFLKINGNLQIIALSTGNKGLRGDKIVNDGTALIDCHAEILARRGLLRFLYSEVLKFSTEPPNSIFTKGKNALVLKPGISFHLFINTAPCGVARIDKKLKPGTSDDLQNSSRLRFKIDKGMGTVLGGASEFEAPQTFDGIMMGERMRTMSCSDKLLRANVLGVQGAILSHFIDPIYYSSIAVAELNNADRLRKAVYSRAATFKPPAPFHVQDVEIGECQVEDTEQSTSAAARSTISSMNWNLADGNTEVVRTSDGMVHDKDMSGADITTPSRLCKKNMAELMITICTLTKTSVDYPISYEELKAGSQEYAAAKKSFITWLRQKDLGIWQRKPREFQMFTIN
UniProt Q9N5V3: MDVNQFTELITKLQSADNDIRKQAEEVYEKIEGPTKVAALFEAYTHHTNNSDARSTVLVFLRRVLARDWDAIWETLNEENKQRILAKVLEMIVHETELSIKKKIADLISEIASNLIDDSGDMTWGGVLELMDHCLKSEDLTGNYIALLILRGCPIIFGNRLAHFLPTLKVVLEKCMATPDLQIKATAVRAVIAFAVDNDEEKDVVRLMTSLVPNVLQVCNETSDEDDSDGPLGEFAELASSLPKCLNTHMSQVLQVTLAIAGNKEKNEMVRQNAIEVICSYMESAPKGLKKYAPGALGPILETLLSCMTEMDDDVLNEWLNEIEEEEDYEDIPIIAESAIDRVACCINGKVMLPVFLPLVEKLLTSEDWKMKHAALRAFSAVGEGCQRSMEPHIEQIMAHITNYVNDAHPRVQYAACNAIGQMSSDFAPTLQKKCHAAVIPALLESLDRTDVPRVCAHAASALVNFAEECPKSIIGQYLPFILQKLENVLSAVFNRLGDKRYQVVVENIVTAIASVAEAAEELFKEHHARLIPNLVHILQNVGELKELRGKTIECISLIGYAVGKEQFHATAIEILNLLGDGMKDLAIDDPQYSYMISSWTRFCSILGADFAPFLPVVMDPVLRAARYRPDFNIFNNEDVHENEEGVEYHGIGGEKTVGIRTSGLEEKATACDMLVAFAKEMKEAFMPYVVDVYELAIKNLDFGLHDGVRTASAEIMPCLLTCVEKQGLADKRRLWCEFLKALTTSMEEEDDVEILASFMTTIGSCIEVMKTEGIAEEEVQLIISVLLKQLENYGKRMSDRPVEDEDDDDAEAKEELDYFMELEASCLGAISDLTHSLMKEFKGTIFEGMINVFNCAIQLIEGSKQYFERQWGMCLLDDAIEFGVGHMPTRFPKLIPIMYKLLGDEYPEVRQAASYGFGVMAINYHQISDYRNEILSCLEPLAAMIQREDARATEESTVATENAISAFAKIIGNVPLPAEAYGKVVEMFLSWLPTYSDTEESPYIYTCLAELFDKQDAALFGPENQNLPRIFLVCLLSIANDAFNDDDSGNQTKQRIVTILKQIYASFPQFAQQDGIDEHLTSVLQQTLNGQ

B1: ADR-1 (protein, UniProt Q9U3D6 1-964)
chain: MDQNPNYNFGYGQAYGSGTDHTSDSTNNYNWASQWSQPESAASLATHTFPQYVSQQQQQQQQQAQQQAQNTYAAMNPISTFMQQQQRAQTFPQKKYGQQGGAPKPSAIRNNNFGAFGGGHALSQEWVQPMSQNQMGGPQGNRFFNNQKGGPFNQNKPNWRQNKPKGPAAPKKFDSTGKSPAMLLHELFKDVSEEYTEVEGVPKKYCCTLKVNGRTFQMESVNKKAAKQKCSELVVRDLRPDVHVTPFEEGVAAKAAAPVKKEIDAASGNGQNNKRNLLQADAISNQPTPKKVSAVKKAKLQLTPVESALSLLDLMQKIIAESAEKYSPVFEASEVPKDPEIPEVEVKKEEVDTNGENVANEKKSGWRKNETMHNVTLKFVEQNKQYTKMGPSRGVLKDMVIREALRDLFNVSHADITTVARRHASNRLGHDTTILQCLNTICSILNCTLTIECEPAEDRPLGIGRAYFMAKCTIIDHNENDLKFEVKSSSLASKAMAKDWVAQETLKNYFAIDPSSCVKTDAVSSQGPCALLHAMLNKQTKQKCKIAYEFKDNVPPVAGQATTTFYCECVIDETDRYIGVGRSKKLAKSEAAMQALKKLFKIDYDPAGNYPLALTSRAMTESKVSPLCRHIAEFCKREYHQMTEYYQIPPSNLFAAFLLVNAQEEKRVLAMGSSIQYIVEPDTLSGANGTSLLHLDAIILARRAMLKAFIHELSTVDSECSIFEKKEEGKAALKPNLRLVLYSNYSPPCIHAVDDAATKKLSYVTPTNLTCVPDDVLTYEQIKETKSLRVHCTADKLFKWNTLGIQGALLSNVLHPIFIDNIFFGSEAPVSDESLSYALQGRLGPNENEREIIVESMPVQMRMHMGISHLWHRGVDSVETLDYNTGRTSKGSPSRVCKAEIFEAYRKLNGVDQAVVNYAKAKEMASEYQYEKKVFYEKLEAAGLGKWQTKPAELVDSFTLAAFD
B2: ADBP-1 (ADR-2 Binding Protein 1) (protein, UniProt G5EDW1 1-217)
chain: MSFASGCTPVSFDKLFEVSSGDKVSRENWGMIARPEPQHDSLKRRNTTSSIAKKKAKMTRGDEQITDETARKAATQLLDQIQDTPGRISLNFETPEAASVCPIPTSLNQIVNTKWTVNQLQEGQLTMLLAQDANKFKSLGVKNIKKGSVETQILPRQMDVKEIVEKLKKQDNDSDQFVGYAAAVANVLRRCDAETAQKITQAITATIEKEAPSIVNC
B3: IMA-3 (protein, UniProt Q19969 1-514)
chain: MSSNRQAYYKNNAKEQIGKEKRNEEVVSIRKDKREEAISKRRNINTQIEDDSETSTTPPGPFDANLLRLTVAAAQSSDPAEQLTAVQQARKMLSTDRNPPIDDLIGSGILPVLVQCLSSTDPNLQFEAAWALTNIASGTSEQTQAVVNAGAVPLFLQLLSCGNLNVCEQSVWALGNIIGDGPHFRDYCLELGILQPLLQFINPEIPIGFLRNVTWVIVNLCRCKDPAPSPAVVRTILPALSLLIHHQDTNILIDTVWALSYLTDGGNEHIQMVIEAQVVTHLVPLLGHVDVKVQTAALRAVGNIVTGTDEQTQLVLDSGVLRFMPGLLAHYKEKINKEAVWFVSNITAGNQQQVQDVFDAGIMPMIIHLLDRGDFPTQKEAAWAISNVTISGRPNQVEQMVKLGVLRPFCAMLSCTDSQIIQVVLDGINNILKMAGEAAEQVTSEIEECGGLDKIENLQNHENEDIYKLAFEIIDNFFSSDDETGNVEGAQSSAFGGDVPPVPDAPNGGWNFGK

Target: ADR-2 (C. elegans (endogenous in wild-type worms)) (UniProt Q22618)
Assay: affinity purification with mass spectrometry; 5 mg lysate of mixed-stage wild-type worms in IP buffer (50 mM HEPES pH 7.4, 70 mM K-acetate, 5 mM Mg-acetate, 0.05% NP-40, 10% glycerol) on anti-rabbit IgG Dynabeads coated with custom ADR-2 antibody, 1 hour in the cold room; washed with 0.5 M NaCl, 160 mM Tris-HCl pH 7.5; on-bead digestion and LC-MS/MS

Molecule | binding
IMB-3 (from UniProt Q9N5V3) | binds
B1 | binds
B2 | binds
B3 | binds

Results are given in words; binding and its absence hold for the method and conditions named. In cells and extracts the contact can be indirect. These calls come from enrichment with a bait or labelling near it, and not all partners need be listed.
